The results in this text go back to the supplement of paper PMC7024190.

SMILES strings stand for the structures. Structures can show the parent of a compound that is named as a salt. The list shows a part of the results. This data set is noisy: repeats of one test often differ as much as different tests do.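 Human embryonic kidney cells were transiently transfected with a plasmid bearing a Renilla luciferase gene under the HSV-TK promoter. This first-round screen tests roughly ten thousand compounds for ones that increase reporter output.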

This test has as its system HEK 293FT. The test can be described thus: log relative Renilla luciferase luminescence (reporter expression vs reference, reference not stated) (log (base not stated)); higher = higher recombinant reporter expression. Particulars: 10 µM; time after transfection 48 h.
In the case of `O=C(NCCCN1CCC2(CC1)OCc1ccccc12)[C@H]1CCCN1Cc1ccccc1`, the log was 0.0581. Turning to `Cn1ccc2cc(NC(=O)Nc3cccnc3)ccc21`, the log was determined as 0.126. Under `O=C1NC(c2cccc([N+](=O)[O-])c2)=CCN1c1ccccc1O` [Icilin] stands 0.189.

For the compound `CN(CCOc1ccc(C[C@H](Nc2ccccc2C(=O)c2ccccc2)C(=O)O)cc1)c1ccccn1`, the log was 0.181. Turning to `CC(=O)NNC(=O)N1Cc2ccccc2Oc2ccc(Cl)cc21`, the log amounted to 0.034. In the case of `C[C@H]1O[C@H](O[C@H]2[C@H](O)[C@@H](O)[C@@H](O[C@H]3[C@H](O)[C@@H](O)C(O)O[C@@H]3CO)O[C@@H]2CO)[C@H](O)[C@@H](O)[C@@H]1N[C@H]1C=C(CO)[C@@H](O)[C@H](O)[C@H]1O` (stereo not given in full) [Acarbose], the log is -0.0206. With `COc1ccc2cccc(N3CCN(CCNC(=O)c4ccc(F)cc4)CC3)c2c1` the figure was 0.0923; with `Cc1ccc(=O)n(-c2ccccc2)c1` [Pirfenidone], -0.0671; with `O=C(/C=C/c1ccccc1)NC(NC(=S)Nc1cccc2cccnc12)C(Cl)(Cl)Cl` (stereo not given) [Salubrinal], 0.0781. With `CC1=C(C(=O)OCCN(Cc2ccccc2)c2ccccc2)C(c2cccc([N+](=O)[O-])c2)C(P2(=O)OCC(C)(C)CO2)=C(C)N1` (stereo not given) [Efonidipine hydrochloride monoethanolate] the figure was -0.079; with `Cc1ccc2c(=O)c3ccccc3n(CCCN)c2c1C`, -0.721. Under `C1CCC(N=C(NC23CC4CC(CC(C4)C2)C3)N2CCOCC2)CC1` stands 0.0941; under `CCCCNC(=O)[C@@H]1Cc2ccccc2N1C(=O)[C@@H](N)CC` [Butabindide oxalate], 0.026. Regarding `C=C1C(=O)O[C@@H]2/C=C(\C)CC/C=C(\C)CC[C@@H]12` [Costunolide], the log is -1.12.

Consider `Nc1ncn([C@H]2C[C@H](O)[C@@H](CO)O2)c(=O)n1` [Decitabine], for which the log is 0.0697.

As to `CCOC(=O)c1ccc(OC(=O)CCCCCNC(=N)N)cc1` [Gabexate mesylate], the log stood at 0.129.

Regarding `NS(=O)(=O)C#Cc1ccccc1` [Pifithrin->m], the log came to 0.0175.

Consider `c1cc2c(cc1C1CCCCC1)c1c3n2CCNC3CCC1` (stereo not given) [Tetrindole mesylate], for which the log is -0.0709. In the case of `N=C(N)c1ccc(N2CCN(C3CCN(CC(=O)O)CC3)CC2)cc1`, the log was -0.132. With `CCOC(=O)[C@H](CCc1ccccc1)N[C@@H](C)C(=O)N1Cc2cc(OC)c(OC)cc2C[C@H]1C(=O)O` [Moexipril hydrochloride] the figure was -0.0133. In the case of `CN(CC[C@@H](Oc1ccc(-c2ccccc2)cc1)c1ccc(F)cc1)CC(=O)O` [ALX 5407 hydrochloride], the log is 0.0748. With `COC(=O)C1=C(C)NC(C)=C([N+](=O)[O-])[C@H]1c1ccccc1C(F)(F)F` the figure was -0.0328; with `COc1cc2c(CCNC(C)=O)c[nH]c2cc1Cl` [6-Chloromelatonin], 0.116. Under `CC(C)N1Cc2cc(S(C)(=O)=O)ccc2N(CCN2CC=C(c3c[nH]c4cc(F)ccc34)CC2)S1(=O)=O` stands 0.0523; under `CN(C)[C@@H]1CCc2[nH]c3ccc(NC(=O)c4ccc(F)cc4)cc3c2C1`, 0.0836.
